In all, about 6,900 compounds went through this assay and fewer than 10 were called active. Calls come from the whole dose curve; as a rule, active = well fitted curve in the direction sought with a large enough effect; inconclusive = small, poorly fitted or top-dose-only effect, or another doubt; inactive = no such curve, though single readings can be large or run the other way. This is one part of the list.
Target: Metallo-beta-lactamase type 2 (Klebsiella pneumoniae) (UniProt C7C422)
Test: qHTS to identify inhibitors of the New Delhi Metallo-beta-lactamase (NDM): primary screen against the NCATS Gemini Collection; note: % of control where 0% means no effect
Details: NDM-1 enzyme, meropenem hydrolysis, absorbance 300 nm; at 38.4 µM (top of the series) unless noted
Outline: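 Meropenem hydrolysis (50 uM final) by 2 nM NDM-1 read as 300 nm absorbance after 30 min, following >30 min compound–enzyme preincubation in HEPES pH 7.0 with 1 uM ZnSO4 and 0.01% Tween20.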

Chains of the proteins cited; added tags and fusions are not shown. Lines headed by an entry give the natural chain unless they say otherwise; changes in a name come on top.
UniProt C7C422: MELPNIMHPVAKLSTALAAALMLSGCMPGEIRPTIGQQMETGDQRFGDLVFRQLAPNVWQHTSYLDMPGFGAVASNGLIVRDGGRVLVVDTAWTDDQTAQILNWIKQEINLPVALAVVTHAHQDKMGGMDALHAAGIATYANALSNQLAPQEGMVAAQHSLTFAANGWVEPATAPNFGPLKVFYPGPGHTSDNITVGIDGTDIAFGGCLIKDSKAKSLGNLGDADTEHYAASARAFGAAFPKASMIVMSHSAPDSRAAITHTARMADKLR

Activity % (negative = inhibition), inactive:
O=C(c1ccncc1)N1CC(N(Cc2ccncc2)CC2CC2)C1 -0.363%, COCC(=O)N1CC(F)(F)C[C@H]1c1nc(-c2cccnc2)no1 -1.2%, Cc1noc(C)c1C(=O)N1CC(N2C(=O)c3c(c(C)nn3-c3ccccc3)C2C)C1 (stereo not given) 5.22%, Cc1cc(C2CCCN2C(=O)c2ccc(F)c(F)c2)on1 (stereo not given) -0.973%, COc1cc(CNCCC(C)C)ccc1OCC(O)CN1CCSCC1 (stereo not given) 21.1%, CN1CCCC1c1nc(C2CN(C(=O)c3ccsc3)C2)no1 (stereo not given) 1.5%, CNC(=O)N1CCC(C2CCN(C(=O)c3cnccn3)C2)CC1 (stereo not given) -1.88%, O=C(Cc1ccc(-n2cnnn2)cc1)N[C@@H]1COCC[C@@H]1OCc1ccccc1 -2.51%, Cc1ccc(C(=O)N(C)CC2CCOC2)cc1 (stereo not given) -4.44%, Cc1cc(C(=O)N[C@@H]2CCC[C@@H](C(=O)N(C)Cc3cccnc3)CC(=O)N(C)C2)no1 -12.2% [at 57.5 µM], O=C1[C@H]2CN(S(=O)(=O)c3ccc(F)cc3)CCN2C(=O)N1CCO -0.0645% [at 57.5 µM], COc1ccc(Cn2c3c(c(=O)n2Cc2ccccc2)CCN(Cc2c(C)noc2C)C3)cc1 -7.71%, Cc1noc(C)c1S(=O)(=O)N1CCC2(C1)N=C(c1ccccn1)C(=O)N2 (stereo not given) -5.38%, CC(C)CNC(=O)N1CCCCC1c1nc(CCOc2ccc(F)cc2)no1 (stereo not given) 14.2%, CCn1nc(CC(C)C)cc1C(=O)N(C)C1CCCN(C2Cc3ccccc3C2)C1 (stereo not given) -0.542%, O=C(CC1CC1)NC1CCCc2nc(-c3ccccc3)ncc21 (stereo not given) 7.73%, CC(=O)N1CCC2(CCN(C(=O)c3ccc(Cl)cc3)CC2)Oc2ccccc21 3.71%, COc1ccc(CC(=O)NC[C@@H]2CC[C@H]3C[C@@H]2C3(C)C)cc1 2.81% [at 57.5 µM], CN(C)C[C@H]1O[C@@H](CO)[C@@H](O)[C@H]1N1CCN(c2ncccn2)CC1 37.7%, CC(C)CN1CC(COc2ccc3ccccc3c2)Oc2ccnc(-c3ccc(OCC(=O)O)cc3)c2C1=O (stereo not given) 15%, Cc1cc(C)c2[nH]c(CN3CCC(N)C3)cc(=O)c2c1 (stereo not given) 15.9%, C=C(C)COc1ccc(C(=O)N2CCN3C(=O)CN(C)C(=O)C3C2)cc1 (stereo not given) -1.35%, O=C(C1CCCN1C(=O)c1ccccc1Cl)N1CCC(c2nc3ccncc3[nH]2)CC1 (stereo not given) -0.206%, O=C(c1ccc(N2CCC(O)CC2)nc1)N1CCC(N2CCOCC2)CC1 9.57%, CN(C)Cc1nnc(C2CC(NC(=O)CC3Cc4ccccc4C3)C2)n1C (stereo not given) 1.47%, COc1cccc(C(O)c2nc(C(=O)N3CCN(c4ccccn4)CC3)c(C)o2)c1 (stereo not given) 10.6% [at 57.5 µM], COc1ccc(C(=O)N2CCCCC23Cc2ccccc2NC3=O)cc1 (stereo not given) -11.2% [at 57.5 µM], CCc1nc2c(c(-c3ccc(O)cc3)n1)CN(Cc1ccc(NC(C)=O)cc1)CC2 13.5%, O=C(NC1CCN(C(=O)c2ccc(-c3cncnc3)cc2)CC1)c1ccccc1F -0.941%, Cc1cc(C(=O)N2CCC(CCOc3ccc(F)cc3)C2)c(C)n1Cc1ccc(F)cc1 (stereo not given) 9.45%, C=CCNC(=O)N[C@H]1C[C@@H](C(=O)N[C@@H](Cc2ccc(OC)cc2)C(N)=O)N(C(=O)CC(C)(C)C)C1 -0.476%, CSc1ccc(-c2cccc(C(=O)NCC(=O)N3CCCC3)c2)cc1 19.8%, OC1CCOC2(CCN(Cc3cccnc3)CC2)C1 (stereo not given) 1.35%, CC(=O)NC(CO)C(=O)N1CCc2[nH]nc(-c3ccc(F)c(F)c3)c2C1 (stereo not given) 17.7%, c1ccc(-c2noc(-c3cncnc3NC3CCCCC3)n2)cc1 63.8%, c1ccc(N2CCC(Cn3ccnc3-c3cc4n(n3)CCCNC4)C2)cc1 (stereo not given) 4.71%, O=C(NC1CCN(c2cc(-c3ccc(Cl)cc3)[nH]n2)C1)c1c[nH]c2ccccc12 (stereo not given) 30.6%, O=C(COc1ccccc1)NCCn1cccc1-c1nc(-c2ccc3c(c2)OCO3)no1 20.6%, COc1cc(F)c(-c2nccn2CC(O)c2ccccc2)cc1OC (stereo not given) 0.362%, CC(C)(CC(=O)O)CC(=O)N1Cc2[nH]cnc2C[C@H]1C(=O)NC1CCCCC1 4.65% [at 57.5 µM], Cc1cc(C)cc(-c2ccc(CN3CCCC(N[S+](=O)([O-])c4cccs4)C3)cc2)c1 (stereo not given) -0.0669%, O=C1NC2(CCN(Cc3ccccc3C(F)(F)F)C2)COc2ccccc21 (stereo not given) 13.6%, O=C(C1CC1)N1C[C@@H]2OCC(=O)N(CC3CC3)[C@@H]2C1 -1.16% [at 77.1 µM], O=C(CC[C@@H]1CNC(=O)[C@@H]2C[C@H](NC(=O)C3CC3)CN12)NCc1cccs1 -0.226% [at 57.5 µM], O=C(CC1CCOCC1)N1CCN(c2ncccn2)CC1 12.5%, O=C(Nc1ccc2c(N3CCCCC3)ncnc2c1)c1ccccc1C(F)(F)F 2.19%, CCS(=O)(=O)N1CCC2(CC1)CC(N1CCN(C(C)C)CC1)CCO2 (stereo not given) 0.626%, CC(=O)NC1CCN(Cc2cn(-c3ccccc3F)nc2-c2cc(C)sc2C)C1 (stereo not given) -0.368%, O=C1CCCCC(C(=O)NCCc2ccncc2)N1 (stereo not given) -9.07%, COC(=O)N1CCCN(c2nccc(Nc3ccc(C)cc3)n2)C1 -3.31% [at 57.5 µM], COc1ccc(N2CC3CCC(C2)N3Cc2cccc(Cl)c2)cc1 -0.387%, FC(F)(F)c1cccc(C2=NOC3(CCCN(CC4CCCCC4)C3)C2)c1 (stereo not given) 7.3%, O=C(c1ccc(F)cc1)N1CCC(N2CCCCCC2=O)CC1 6.1% [at 57.5 µM], CN(C(=O)C1(N)CC1)C1CCCN(CCCc2ccccc2)C1 (stereo not given) 29.4%, O=S(=O)(N[C@H]1[C@H](O)[C@H](O)C[C@@H]1c1cncnc1)c1ccc(Cl)cc1 4.46% [at 57.5 µM], O[C@@H]1CC(CNCc2ccc(F)cc2)(COc2cccnc2)C[C@@H]1O (stereo not given in full) 36.3% [at 57.5 µM], O=C(CN1CCOCC1)N1CCC(c2cc(N3CCCC3)ncn2)CC1 -2%, Cc1ncccc1C(=O)N1CCCN(C(=O)C2CC2)C(c2ccccc2)CC(=O)NCC1 (stereo not given) 1.83%, Cc1nn(-c2ccccc2)c2c1C(C1CC1)N(C1CN(C(=O)Nc3ccccc3)C1)C2=O (stereo not given) -3.25%, Cc1ccc(C(C(=O)NCc2c(C)n[nH]c2C)N(C)C)cc1 (stereo not given) 2.18%, CC[C@H]1CN(S(=O)(=O)c2ccc(OC)cc2)CC[C@H]1CC(=O)NCc1cccnc1 -5.12% [at 57.5 µM], CCOC(=O)C1CCCN(C(=O)C2CC(c3ccc(CC)cc3)CN(C(C)=O)C2)C1 (stereo not given) -0.291%, O=C(Nc1cccc(Cl)c1)[C@@H]1C[C@H](c2ccc(F)cc2)N([S+](=O)([O-])C2CC2)C1 -4.3% [at 57.5 µM], Cc1ccc(N2CCN(C(=O)c3noc(-c4ccc[nH]c4=O)n3)CC2)cc1 40.4%, COc1ccc(F)cc1S(=O)(=O)N1C[C@@H](C(N)=O)[C@H](C2CCN(C)CC2)C1 5.81%, CC1(CCC(=O)N2CCCC2C(=O)Nc2ccccc2Oc2cccnc2)CC1 (stereo not given) 1.27%, CSCCC(=O)N1CCC(C2CCN(c3ncccn3)CC2)C1 (stereo not given) 17.7%, Cc1ccc(C(=O)N2CCC3(CC2)N=C(c2cccc(Br)c2)NO3)s1 -0.31%, N#Cc1cnc(N2CC3CCC(C2)N3CC(F)(F)F)s1 10.6% [at 57.5 µM], COc1ccccc1CN(C)C1CCc2ccccc21 (stereo not given) 8.3% [at 57.5 µM], O=C(N[C@H]1CCOC[C@H]1C1CCOCC1)c1cc2ncccn2n1 61.1%, O=C(NC1CCCCC1)c1nn(CCOc2ccccc2)c2c1CNCC2 -2.67%, CN1CCCC2(CC1)CCN(C(=O)c1ccc(C#CC(C)(C)O)cc1)CC2 9.2%, CN(CCc1ccccc1)C(=O)c1cc(-c2ccc[nH]2)n[nH]1 -4.72%, Cc1ccc(F)c(C(=O)N[C@H]2CCOC[C@H]2C2CCOCC2)c1Cl 0.677%, N#CC1CCN(C(=O)c2nc(-c3ccc(Cl)cc3Cl)c3ccccn23)CC1 -1.02%, CC(C)[C@@H]1C[C@@H]2C[C@@H](Nc3ccccn3)C[C@]2(c2ccccc2)CO1 -0.569%, CC1CCCC(C)N1C(=O)c1ccc2nc(-c3cccnc3)oc2c1 (stereo not given) 9.96% [at 57.5 µM], O=C(CC1CCCC1)N1CC[C@@H]2COCCN(Cc3ccccc3)[C@@H]2C1 0.752%, CNc1cc(C2CC(NC(=O)COc3ccc(Cl)cc3C)C2)nc(N)n1 (stereo not given) -5.16%, COCCn1cnnc1C(C)NC(=O)c1cn(C2CCC(N)CC2)nn1 (stereo not given) 5.59%, COc1ccccc1-c1nocc1CCC(=O)O 5.56%, CCCNC(=O)NCCc1ncc(C)n1CC1CC1 2.69%, Cc1cc(C)c(CNC(=O)c2cccc(CCC(C)(C)O)c2)cn1 2.12%, COCCn1c(C)cc(C(=O)N2CCCCCCNC(=O)CC2)c1C -0.0422%
